Measurements as given in paper doi:10.1101/717769.
No constants are given. Whether binding was seen depends on the method and setting. In cells and extracts the contact can be indirect. Some results given as binding are weak or reduced against the parent protein; the word gives no strength.

Chains of the proteins cited; added tags and fusions are not shown.
UniProt P35241: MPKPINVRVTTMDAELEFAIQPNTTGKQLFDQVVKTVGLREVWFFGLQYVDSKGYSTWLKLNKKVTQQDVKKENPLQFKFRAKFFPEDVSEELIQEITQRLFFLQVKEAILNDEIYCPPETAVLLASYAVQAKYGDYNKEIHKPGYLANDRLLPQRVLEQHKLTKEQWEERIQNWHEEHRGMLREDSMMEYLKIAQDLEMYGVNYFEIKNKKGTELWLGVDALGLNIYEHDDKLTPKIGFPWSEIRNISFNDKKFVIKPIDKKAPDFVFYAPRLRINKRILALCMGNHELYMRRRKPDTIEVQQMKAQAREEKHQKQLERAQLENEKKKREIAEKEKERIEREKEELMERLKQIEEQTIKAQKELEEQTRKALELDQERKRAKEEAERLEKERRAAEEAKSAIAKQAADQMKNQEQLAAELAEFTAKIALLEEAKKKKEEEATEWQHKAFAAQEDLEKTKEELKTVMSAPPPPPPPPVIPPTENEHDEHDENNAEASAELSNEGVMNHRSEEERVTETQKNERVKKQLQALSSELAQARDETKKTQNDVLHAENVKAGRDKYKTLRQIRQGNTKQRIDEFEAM
UniProt P15311: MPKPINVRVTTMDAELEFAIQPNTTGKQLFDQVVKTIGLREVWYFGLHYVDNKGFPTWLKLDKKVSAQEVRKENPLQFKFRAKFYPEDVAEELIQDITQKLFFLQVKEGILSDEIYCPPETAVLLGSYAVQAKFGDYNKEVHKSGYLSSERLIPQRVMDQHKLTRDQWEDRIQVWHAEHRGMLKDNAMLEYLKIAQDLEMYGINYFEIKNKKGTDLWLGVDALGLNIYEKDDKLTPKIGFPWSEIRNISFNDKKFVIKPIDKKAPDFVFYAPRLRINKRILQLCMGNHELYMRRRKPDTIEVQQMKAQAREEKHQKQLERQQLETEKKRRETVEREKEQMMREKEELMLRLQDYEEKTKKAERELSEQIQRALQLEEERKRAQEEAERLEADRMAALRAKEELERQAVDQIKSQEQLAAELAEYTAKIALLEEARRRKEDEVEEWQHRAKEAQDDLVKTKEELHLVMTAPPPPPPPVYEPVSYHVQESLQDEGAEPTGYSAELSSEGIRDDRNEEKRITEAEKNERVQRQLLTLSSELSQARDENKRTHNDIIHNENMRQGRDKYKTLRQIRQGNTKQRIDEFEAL
UniProt P11171: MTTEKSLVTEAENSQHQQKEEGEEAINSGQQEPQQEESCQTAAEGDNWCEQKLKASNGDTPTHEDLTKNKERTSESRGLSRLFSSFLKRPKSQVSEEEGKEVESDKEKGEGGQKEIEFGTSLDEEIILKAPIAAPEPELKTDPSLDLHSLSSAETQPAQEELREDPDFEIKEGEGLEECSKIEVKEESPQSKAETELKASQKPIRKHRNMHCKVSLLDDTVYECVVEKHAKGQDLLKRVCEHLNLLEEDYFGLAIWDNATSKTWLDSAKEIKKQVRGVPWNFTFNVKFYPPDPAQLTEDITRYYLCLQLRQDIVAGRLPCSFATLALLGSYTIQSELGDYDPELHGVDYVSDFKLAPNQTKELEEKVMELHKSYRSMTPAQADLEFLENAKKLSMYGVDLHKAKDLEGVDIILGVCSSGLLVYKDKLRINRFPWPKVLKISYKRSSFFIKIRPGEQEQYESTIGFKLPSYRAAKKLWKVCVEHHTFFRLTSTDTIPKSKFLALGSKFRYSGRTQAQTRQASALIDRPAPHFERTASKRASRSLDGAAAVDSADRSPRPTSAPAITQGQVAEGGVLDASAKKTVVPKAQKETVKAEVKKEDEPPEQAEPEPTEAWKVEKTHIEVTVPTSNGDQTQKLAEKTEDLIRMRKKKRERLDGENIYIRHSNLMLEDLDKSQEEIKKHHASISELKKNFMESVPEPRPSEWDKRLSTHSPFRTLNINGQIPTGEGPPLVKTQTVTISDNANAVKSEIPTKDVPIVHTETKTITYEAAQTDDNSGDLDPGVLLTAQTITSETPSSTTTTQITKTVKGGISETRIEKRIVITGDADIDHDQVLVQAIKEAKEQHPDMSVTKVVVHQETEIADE
UniProt P26038: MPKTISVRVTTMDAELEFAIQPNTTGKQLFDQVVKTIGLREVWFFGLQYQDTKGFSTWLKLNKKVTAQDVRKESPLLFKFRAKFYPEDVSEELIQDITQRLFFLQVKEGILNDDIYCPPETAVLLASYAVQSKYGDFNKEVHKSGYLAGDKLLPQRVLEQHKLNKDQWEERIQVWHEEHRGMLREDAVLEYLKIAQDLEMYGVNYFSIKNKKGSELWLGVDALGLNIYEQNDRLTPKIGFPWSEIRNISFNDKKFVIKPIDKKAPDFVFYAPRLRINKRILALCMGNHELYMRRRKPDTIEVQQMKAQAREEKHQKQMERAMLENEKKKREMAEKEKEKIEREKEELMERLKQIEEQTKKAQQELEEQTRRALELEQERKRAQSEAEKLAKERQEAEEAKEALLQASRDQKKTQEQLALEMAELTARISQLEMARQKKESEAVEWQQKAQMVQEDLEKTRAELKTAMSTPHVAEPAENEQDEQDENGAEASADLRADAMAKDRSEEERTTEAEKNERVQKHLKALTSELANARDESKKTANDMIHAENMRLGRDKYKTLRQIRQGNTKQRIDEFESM

Columns and labels:
[1] = molecular target: Flag-Radixin (UniProt P35241); assay: co-IP
[2] = molecular target: Flag-Ezrin (UniProt P15311); assay: co-IP
[3] = molecular target: Flag-erythrocyte membrane protein band 4.1 (EPB41) (UniProt P11171); assay: co-IP
[4] = molecular target: Flag-Merlin (UniProt P35240); assay: co-IP
[5] = molecular target: Flag-Moesin (UniProt P26038); assay: co-IP
[6] = molecular target: Flag-Merlin isoform 1 (UniProt P35240); assay: co-IP
[7] = molecular target: GST-Merlin (full length) (UniProt P35240); assay: pull-down

| Binder | binding [1] | binding [2] | binding [3] | binding [4] | binding [5] | binding [6] | binding [7] |
| --- | --- | --- | --- | --- | --- | --- | --- |
| TAT-SF1 (endogenous) (protein, UniProt O43719 1-755) MSGTNLDGNDEFDEQLRMQELYGDGKDGDTQTDAGGEPDSLGQQPTDTPYEWDLDKKAWFPKITEDFIATYQANYGFSNDGASSSTANVEDVHARTAEEPPQEKAPEPTDARKKGEKRKAESGWFHVEEDRNTNVYVSGLPPDITVDEFIQLMSKFGIIMRDPQTEEFKVKLYKDNQGNLKGDGLCCYLKRESVELALKLLDEDEIRGYKLHVEVAKFQLKGEYDASKKKKKCKDYKKKLSMQQKQLDWRPERRAGPSRMRHERVVIIKNMFHPMDFEDDPLVLNEIREDLRVECSKFGQIRKLLLFDRHPDGVASVSFRDPEEADYCIQTLDGRWFGGRQITAQAWDGTTDYQVEETSREREERLRGWEAFLNAPEANRGLRRSDSVSASERAGPSRARHFSEHPSTSKMNAQETATGMAFEEPIDEKKFEKTEDGGEFEEGASENNAKESSPEKEAEEGCPEKESEEGCPKRGFEGSCSQKESEEGNPVRGSEEDSPKKESKKKTLKNDCEENGLAKESEDDLNKESEEEVGPTKESEEDDSEKESDEDCSEKQSEDGSEREFEENGLEKDLDEEGSEKELHENVLDKELEENDSENSEFEDDGSEKVLDEEGSEREFDEDSDEKEEEEDTYEKVFDDESDEKEDEEYADEKGLEAADKKAEEGDADEKLFEESDDKEDEDADGKEVEDADEKLFEDDDSNEKLFDEEEDSSEKLFDDSDERGTLGGFGSVEEGPLSTGSSFILSSDDDDDDI | no binding | no binding | no binding | binds | no binding | binds | binds |
| AMOTL1 (endogenous) (protein, UniProt Q8IY63 1-956) MWRAKLRRGTCEPAVKGSPSACYSPSSPVQVLEDSTYFSPDFQLYSGRHETSALTVEATSSIREKVVEDPLCNFHSPNFLRISEVEMRGSEDAAAGTVLQRLIQEQLRYGTPTENMNLLAIQHQATGSAGPAHPTNNFSSTENLTQEDPQMVYQSARQEPQGQEHQVDNTVMEKQVRSTQPQQNNEELPTYEEAKAQSQFFRGQQQQQQQQGAVGHGYYMAGGTSQKSRTEGRPTVNRANSGQAHKDEALKELKQGHVRSLSERIMQLSLERNGAKQHLPGSGNGKGFKVGGGPSPAQPAGKVLDPRGPPPEYPFKTKQMMSPVSKTQEHGLFYGDQHPGMLHEMVKPYPAPQPVRTDVAVLRYQPPPEYGVTSRPCQLPFPSTMQQHSPMSSQTSSASGPLHSVSLPLPLPMALGAPQPPPAASPSQQLGPDAFAIVERAQQMVEILTEENRVLHQELQGYYDNADKLHKFEKELQRISEAYESLVKSTTKRESLDKAMRNKLEGEIRRLHDFNRDLRDRLETANRQLSSREYEGHEDKAAEGHYASQNKEFLKEKEKLEMELAAVRTASEDHRRHIEILDQALSNAQARVIKLEEELREKQAYVEKVEKLQQALTQLQSACEKREQMERRLRTWLERELDALRTQQKHGNGQPANMPEYNAPALLELVREKEERILALEADMTKWEQKYLEESTIRHFAMNAAATAAAERDTTIINHSRNGSYGESSLEAHIWQEEEEVVQANRRCQDMEYTIKNLHAKIIEKDAMIKVLQQRSRKDAGKTDSSSLRPARSVPSIAAATGTHSRQTSLTSSQLAEEKKEEKTWKGSIGLLLGKEHHEHASAPLLPPPPTSALSSIASTTAASSAHAKTGSKDSSTQTDKSAELFWPSMASLPSRGRLSTTPAHSPVLKHPAAKGTAEKLENSPGHGKSPDHRGRVSSLLHKPEFPDGEMMEVLI |  |  |  | binds |  |  |  |
